Measurements from the supplement of paper PMC12823440, “Inhibitors supercharge kinase turnover through native proteolytic circuits” (Nature, 2025).
Counter-ions that a name gives are not always drawn. The list shows a part of the results. Hit calls seldom repeat between salt and free forms of one compound.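 Kinases, fused to nanoluciferase, were expressed in K562 cells; luminescence was measured every 4 h from 2 to 18 h as percent of control (DMSO = 100%, positive control = 0%). A time point is decreased if signal falls significantly (2 sigma). Hits were called by the authors by a rule that is not shown; the count of time points alone does not decide it.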

Protein sequences, listed by entry. Tags and fused reporters are not part of them. Lines headed by an entry give the natural chain unless they say otherwise; changes in a name come on top.
UniProt P50613: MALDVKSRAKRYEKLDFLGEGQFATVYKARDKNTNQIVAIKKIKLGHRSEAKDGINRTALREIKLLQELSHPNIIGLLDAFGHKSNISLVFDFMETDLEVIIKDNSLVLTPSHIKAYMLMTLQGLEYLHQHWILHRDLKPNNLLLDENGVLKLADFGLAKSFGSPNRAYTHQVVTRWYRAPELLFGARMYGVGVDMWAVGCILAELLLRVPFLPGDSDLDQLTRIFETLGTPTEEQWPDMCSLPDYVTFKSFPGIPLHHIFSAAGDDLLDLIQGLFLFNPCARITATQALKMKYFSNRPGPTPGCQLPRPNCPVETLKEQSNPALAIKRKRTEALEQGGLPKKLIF
UniProt P50750, whole entry: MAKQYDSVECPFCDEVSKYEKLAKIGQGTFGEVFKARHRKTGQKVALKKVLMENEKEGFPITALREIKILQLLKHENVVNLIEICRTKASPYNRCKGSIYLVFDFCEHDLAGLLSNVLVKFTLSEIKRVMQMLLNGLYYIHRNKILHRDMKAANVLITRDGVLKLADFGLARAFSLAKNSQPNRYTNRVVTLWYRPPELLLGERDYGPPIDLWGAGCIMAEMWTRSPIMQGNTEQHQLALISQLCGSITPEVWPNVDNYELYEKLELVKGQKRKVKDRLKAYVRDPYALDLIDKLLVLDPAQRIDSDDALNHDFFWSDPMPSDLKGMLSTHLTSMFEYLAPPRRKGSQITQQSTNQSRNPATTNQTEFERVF
UniProt O96017, whole entry: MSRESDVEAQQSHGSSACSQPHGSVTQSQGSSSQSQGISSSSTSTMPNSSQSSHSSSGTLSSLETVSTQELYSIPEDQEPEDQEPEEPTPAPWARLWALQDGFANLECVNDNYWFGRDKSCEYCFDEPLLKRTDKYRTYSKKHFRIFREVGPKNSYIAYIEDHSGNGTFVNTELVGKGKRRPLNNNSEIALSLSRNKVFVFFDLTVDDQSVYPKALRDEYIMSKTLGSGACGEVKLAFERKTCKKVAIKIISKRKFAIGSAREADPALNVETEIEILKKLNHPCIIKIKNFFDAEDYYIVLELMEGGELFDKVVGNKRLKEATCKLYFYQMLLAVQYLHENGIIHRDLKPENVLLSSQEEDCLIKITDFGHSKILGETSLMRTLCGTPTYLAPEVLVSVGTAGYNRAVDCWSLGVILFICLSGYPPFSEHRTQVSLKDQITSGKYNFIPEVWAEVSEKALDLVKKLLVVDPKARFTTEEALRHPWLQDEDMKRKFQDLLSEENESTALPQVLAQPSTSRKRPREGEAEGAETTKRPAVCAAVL
UniProt P07333, whole entry: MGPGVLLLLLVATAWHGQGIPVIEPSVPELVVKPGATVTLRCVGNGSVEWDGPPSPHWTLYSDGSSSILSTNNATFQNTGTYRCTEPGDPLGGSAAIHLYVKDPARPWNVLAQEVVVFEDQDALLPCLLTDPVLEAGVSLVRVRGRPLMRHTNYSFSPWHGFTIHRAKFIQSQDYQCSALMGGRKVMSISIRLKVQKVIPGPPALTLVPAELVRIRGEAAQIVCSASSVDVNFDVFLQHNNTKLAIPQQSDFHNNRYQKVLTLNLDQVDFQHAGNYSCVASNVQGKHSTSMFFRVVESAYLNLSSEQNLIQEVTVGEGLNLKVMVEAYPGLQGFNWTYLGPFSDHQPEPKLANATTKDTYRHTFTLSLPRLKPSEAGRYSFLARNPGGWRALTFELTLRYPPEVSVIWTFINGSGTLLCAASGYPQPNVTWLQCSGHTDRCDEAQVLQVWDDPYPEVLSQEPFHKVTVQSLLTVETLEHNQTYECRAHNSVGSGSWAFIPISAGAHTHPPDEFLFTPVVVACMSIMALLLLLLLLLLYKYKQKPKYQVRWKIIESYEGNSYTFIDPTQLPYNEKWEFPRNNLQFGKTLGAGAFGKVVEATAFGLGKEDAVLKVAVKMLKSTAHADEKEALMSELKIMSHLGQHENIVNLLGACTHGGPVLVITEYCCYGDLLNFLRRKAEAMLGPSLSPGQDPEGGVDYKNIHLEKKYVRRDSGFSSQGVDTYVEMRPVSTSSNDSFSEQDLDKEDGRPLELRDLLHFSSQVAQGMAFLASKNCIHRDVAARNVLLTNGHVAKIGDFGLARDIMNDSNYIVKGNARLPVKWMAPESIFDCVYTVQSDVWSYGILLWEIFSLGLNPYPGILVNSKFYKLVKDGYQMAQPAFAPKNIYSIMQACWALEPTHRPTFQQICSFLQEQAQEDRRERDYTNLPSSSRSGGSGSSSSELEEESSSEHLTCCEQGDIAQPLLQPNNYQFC
UniProt P41240: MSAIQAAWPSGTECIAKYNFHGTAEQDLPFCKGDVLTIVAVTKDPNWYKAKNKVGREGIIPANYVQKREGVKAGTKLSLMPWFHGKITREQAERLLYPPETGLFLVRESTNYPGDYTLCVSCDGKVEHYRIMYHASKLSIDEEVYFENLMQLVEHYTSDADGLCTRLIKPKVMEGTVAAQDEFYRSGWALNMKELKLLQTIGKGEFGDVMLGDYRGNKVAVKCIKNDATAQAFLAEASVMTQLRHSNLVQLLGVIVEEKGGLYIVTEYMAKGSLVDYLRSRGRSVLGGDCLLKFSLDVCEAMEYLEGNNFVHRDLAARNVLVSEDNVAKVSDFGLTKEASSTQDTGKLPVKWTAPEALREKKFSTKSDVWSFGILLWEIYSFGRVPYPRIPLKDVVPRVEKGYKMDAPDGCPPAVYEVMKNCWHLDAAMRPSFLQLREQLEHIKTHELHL
UniProt P48729: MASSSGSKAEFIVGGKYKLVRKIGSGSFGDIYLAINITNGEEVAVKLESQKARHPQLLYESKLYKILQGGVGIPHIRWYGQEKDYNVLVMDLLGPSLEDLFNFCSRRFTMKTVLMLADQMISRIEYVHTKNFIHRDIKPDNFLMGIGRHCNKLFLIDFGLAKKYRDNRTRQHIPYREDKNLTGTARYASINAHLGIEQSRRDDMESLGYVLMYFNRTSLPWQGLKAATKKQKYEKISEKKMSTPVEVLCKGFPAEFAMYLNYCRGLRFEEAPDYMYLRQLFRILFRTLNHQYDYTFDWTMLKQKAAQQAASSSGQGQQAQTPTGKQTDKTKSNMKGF
UniProt P48730: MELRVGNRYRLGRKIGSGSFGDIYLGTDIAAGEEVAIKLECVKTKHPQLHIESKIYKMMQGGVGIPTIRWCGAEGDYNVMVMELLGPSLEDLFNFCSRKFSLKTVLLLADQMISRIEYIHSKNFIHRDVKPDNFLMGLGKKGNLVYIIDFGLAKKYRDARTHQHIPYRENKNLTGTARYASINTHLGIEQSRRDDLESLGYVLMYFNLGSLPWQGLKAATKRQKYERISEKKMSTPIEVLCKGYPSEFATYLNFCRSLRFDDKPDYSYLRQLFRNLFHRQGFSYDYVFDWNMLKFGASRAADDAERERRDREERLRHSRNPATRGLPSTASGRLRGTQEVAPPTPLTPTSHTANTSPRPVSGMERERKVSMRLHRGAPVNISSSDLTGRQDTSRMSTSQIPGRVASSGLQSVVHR
UniProt Q08345: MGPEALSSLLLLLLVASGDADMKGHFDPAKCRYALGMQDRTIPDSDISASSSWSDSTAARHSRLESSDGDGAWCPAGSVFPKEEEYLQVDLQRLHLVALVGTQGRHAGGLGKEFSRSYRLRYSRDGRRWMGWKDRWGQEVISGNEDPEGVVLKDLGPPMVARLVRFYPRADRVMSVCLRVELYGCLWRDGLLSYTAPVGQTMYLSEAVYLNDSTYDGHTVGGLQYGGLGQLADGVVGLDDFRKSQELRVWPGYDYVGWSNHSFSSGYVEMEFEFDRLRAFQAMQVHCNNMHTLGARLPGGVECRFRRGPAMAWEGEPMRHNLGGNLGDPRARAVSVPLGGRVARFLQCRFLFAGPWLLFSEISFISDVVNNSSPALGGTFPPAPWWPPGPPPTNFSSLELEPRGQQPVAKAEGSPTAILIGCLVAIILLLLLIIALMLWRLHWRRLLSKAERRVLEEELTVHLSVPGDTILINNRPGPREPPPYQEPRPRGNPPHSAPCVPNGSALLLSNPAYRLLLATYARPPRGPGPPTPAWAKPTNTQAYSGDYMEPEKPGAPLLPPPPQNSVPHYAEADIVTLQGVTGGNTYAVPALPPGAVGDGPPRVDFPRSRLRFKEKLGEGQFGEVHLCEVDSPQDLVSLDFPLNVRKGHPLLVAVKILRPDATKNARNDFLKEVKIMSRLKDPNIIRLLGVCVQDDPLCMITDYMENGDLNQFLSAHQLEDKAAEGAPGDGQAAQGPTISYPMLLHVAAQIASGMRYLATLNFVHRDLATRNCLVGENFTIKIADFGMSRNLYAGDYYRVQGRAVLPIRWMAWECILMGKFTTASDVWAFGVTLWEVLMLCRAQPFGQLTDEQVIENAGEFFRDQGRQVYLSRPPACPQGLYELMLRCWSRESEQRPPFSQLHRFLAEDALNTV
UniProt Q9Y463, whole entry, looked up: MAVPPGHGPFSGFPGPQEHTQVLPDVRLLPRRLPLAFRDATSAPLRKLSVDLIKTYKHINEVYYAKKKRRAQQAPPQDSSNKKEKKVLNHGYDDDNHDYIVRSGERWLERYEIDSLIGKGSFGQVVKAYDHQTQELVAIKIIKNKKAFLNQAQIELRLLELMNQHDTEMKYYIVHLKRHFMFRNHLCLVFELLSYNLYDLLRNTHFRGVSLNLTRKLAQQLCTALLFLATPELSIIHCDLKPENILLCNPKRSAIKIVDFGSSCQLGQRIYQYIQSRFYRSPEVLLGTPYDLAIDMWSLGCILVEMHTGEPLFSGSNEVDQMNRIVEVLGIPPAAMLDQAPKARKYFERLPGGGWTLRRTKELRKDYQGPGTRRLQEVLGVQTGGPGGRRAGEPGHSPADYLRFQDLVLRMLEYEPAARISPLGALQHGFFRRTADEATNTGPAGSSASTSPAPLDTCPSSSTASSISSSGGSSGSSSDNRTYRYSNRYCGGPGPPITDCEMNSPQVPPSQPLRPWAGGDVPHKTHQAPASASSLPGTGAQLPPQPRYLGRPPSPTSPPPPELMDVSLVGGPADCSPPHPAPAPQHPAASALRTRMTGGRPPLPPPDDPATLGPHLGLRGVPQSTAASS
UniProt Q92630: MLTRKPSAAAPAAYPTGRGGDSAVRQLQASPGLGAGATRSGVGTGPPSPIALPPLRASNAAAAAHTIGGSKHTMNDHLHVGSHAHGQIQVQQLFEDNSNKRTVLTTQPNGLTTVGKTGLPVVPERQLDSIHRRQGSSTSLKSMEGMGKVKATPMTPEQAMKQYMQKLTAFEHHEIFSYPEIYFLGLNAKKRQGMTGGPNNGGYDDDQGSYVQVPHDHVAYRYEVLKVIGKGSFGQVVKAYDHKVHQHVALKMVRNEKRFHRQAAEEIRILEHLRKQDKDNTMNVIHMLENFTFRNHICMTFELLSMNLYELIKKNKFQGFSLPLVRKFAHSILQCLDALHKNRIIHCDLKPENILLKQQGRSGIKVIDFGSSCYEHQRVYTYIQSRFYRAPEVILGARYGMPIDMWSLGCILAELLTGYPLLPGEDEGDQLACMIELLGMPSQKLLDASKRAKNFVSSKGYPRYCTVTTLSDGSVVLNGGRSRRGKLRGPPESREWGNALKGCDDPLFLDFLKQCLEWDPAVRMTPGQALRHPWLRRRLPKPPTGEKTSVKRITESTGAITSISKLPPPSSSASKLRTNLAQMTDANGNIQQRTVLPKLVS

How the values were obtained:
Experiment in all cases: kinase-Nluc reporter destabilization hit call (1 = scored as downregulated) (binary); higher = compound decreases kinase abundance
Conditions in all cases: K562; 2-18 h
CDK7 = CDK7 (UniProt P50613)
CDK9 = CDK9 (UniProt P50750)
CHEK2 = CHEK2 (UniProt O96017)
CSF1R = CSF1R (UniProt P07333)
CSK = CSK (UniProt P41240)
CSNK1A1 = CSNK1A1 (UniProt P48729)
CSNK1D = CSNK1D (UniProt P48730)
DDR1 = DDR1 (UniProt Q08345)
DYRK1B = DYRK1B (UniProt Q9Y463)
DYRK2 = DYRK2 (UniProt Q92630)

Measured: kinase-Nluc reporter destabilization hit call

Cn1nc(C(C)(C)C)cc1NC(=O)Nc1ccc(Oc2ccncc2)cc1 (10 µM)
active: CDK7 = 1
inactive: CDK9 = 0 | CHEK2 = 0 | CSF1R 0 | CSK 0 | CSNK1A1 = 0 | CSNK1D 0 | DDR1 = 0 | DYRK1B 0 | DYRK2 = 0

COc1ccc(C=C(C#N)c2cccnc2)cc1OC (10 µM)
inactive: CDK7 = 0 | CDK9 = 0 | CHEK2 = 0 | CSF1R 0 | CSK 0 | CSNK1A1 = 0 | CSNK1D 0 | DDR1 = 0 | DYRK1B 0 | DYRK2 = 0

COc1ccc(Oc2cc(NCCC(F)(F)F)c3ncc(-c4ccc(C(=O)NC5CC5)c(C)c4)n3n2)c(F)c1F (2.5 µM)
inactive: CDK7 = 0 | CDK9 = 0 | CHEK2 = 0 | CSF1R 0 | CSK 0 | CSNK1A1 = 0 | CSNK1D 0 | DDR1 = 0 | DYRK1B 0 | DYRK2 = 0

CNC(=O)c1cccc2cc(Oc3ccnc4cc(OCC5(N)CC5)c(OC)cc34)ccc12 [Lucitanib] (10 µM)
inactive: CDK7 = 0 | CDK9 = 0 | CHEK2 = 0 | CSF1R 0 | CSK 0 | CSNK1A1 = 0 | CSNK1D 0 | DDR1 = 0 | DYRK1B 0 | DYRK2 = 0

Nc1ncnc2c1c(-c1cccc(OCc3ccccc3)c1)cn2C1CC(CN2CCCC2)C1 (stereo not given) (2.5 µM)
inactive: CDK7 = 0 | CDK9 = 0 | CHEK2 = 0 | CSF1R 0 | CSK 0 | CSNK1A1 = 0 | CSNK1D 0 | DDR1 = 0 | DYRK1B 0 | DYRK2 = 0

C[C@H](NC(=O)/C(C#N)=C/c1cccc(Br)n1)c1ccccc1 (2.5 µM)
inactive: CDK7 = 0 | CDK9 = 0 | CHEK2 = 0 | CSF1R 0 | CSK 0 | CSNK1A1 = 0 | CSNK1D 0 | DDR1 = 0 | DYRK1B 0 | DYRK2 = 0

Cn1c(=O)n(-c2ccc(C(C)(C)C#N)cc2)c2c3cc(-c4cnc5ccccc5c4)ccc3ncc21 [Dactolisib (Tosylate)] (10 µM)
inactive: CDK7 = 0 | CDK9 = 0 | CHEK2 = 0 | CSF1R 0 | CSK 0 | CSNK1A1 = 0 | CSNK1D 0 | DDR1 = 0 | DYRK1B 0 | DYRK2 = 0

COc1cc2c(Nc3ccc(Br)cc3F)ncnc2cc1OCCn1ccnn1 (10 µM)
inactive: CDK7 = 0 | CDK9 = 0 | CHEK2 = 0 | CSF1R 0 | CSK 0 | CSNK1A1 = 0 | CSNK1D 0 | DDR1 = 0 | DYRK1B 0 | DYRK2 = 0

Looked up one by one from above, 2 records:
Nc1ncnc2c1c(-c1cccc(OCc3ccccc3)c1)cn2C1CC(CN2CCCC2)C1 (stereo not given) (2.5 µM)
inactive: CDK7 = 0 | CDK9 = 0 | CHEK2 = 0 | CSF1R 0 | CSK 0 | CSNK1A1 = 0 | CSNK1D 0 | DDR1 = 0 | DYRK1B 0 | DYRK2 = 0

CNC(=O)c1cccc2cc(Oc3ccnc4cc(OCC5(N)CC5)c(OC)cc34)ccc12 [Lucitanib] (10 µM)
inactive: CDK7 = 0 | CDK9 = 0 | CHEK2 = 0 | CSF1R 0 | CSK 0 | CSNK1A1 = 0 | CSNK1D 0 | DDR1 = 0 | DYRK1B 0 | DYRK2 = 0

Next records follow.

CCCCOc1c(C(=O)c2c(F)cc(C)cc2F)c[nH]c2nncc1-2 (10 µM)
inactive: CDK7 = 0 | CDK9 = 0 | CHEK2 = 0 | CSF1R 0 | CSK 0 | CSNK1A1 = 0 | CSNK1D 0 | DDR1 = 0 | DYRK1B 0 | DYRK2 = 0

CCCCC[C@H](O)CC(=O)CCc1ccc(O)c(OC)c1 [[6]-Gingerol] (10 µM)
inactive: CDK7 = 0 | CDK9 = 0 | CHEK2 = 0 | CSF1R 0 | CSK 0 | CSNK1A1 = 0 | CSNK1D 0 | DDR1 = 0 | DYRK1B 0 | DYRK2 = 0

CC(C)(/C=C(\C#N)C(=O)N1CCC[C@@H](n2nc(-c3ccc(Oc4ccccc4)cc3F)c3c(N)ncnc32)C1)N1CCN(C2COC2)CC1 (2.5 µM)
inactive: CDK7 = 0 | CDK9 = 0 | CHEK2 = 0 | CSF1R 0 | CSK 0 | CSNK1A1 = 0 | CSNK1D 0 | DDR1 = 0 | DYRK1B 0 | DYRK2 = 0

COc1cc2ncnc(Nc3cccc(O)c3)c2cc1OC (10 µM)
inactive: CDK7 = 0 | CDK9 = 0 | CHEK2 = 0 | CSF1R 0 | CSK 0 | CSNK1A1 = 0 | CSNK1D 0 | DDR1 = 0 | DYRK1B 0 | DYRK2 = 0

Cn1c(=O)c(Oc2ccc(F)cc2F)cc2cnc(NC3CCOCC3)nc21 [R1487 (Hydrochloride)] (10 µM)
inactive: CDK7 = 0 | CDK9 = 0 | CHEK2 = 0 | CSF1R 0 | CSK 0 | CSNK1A1 = 0 | CSNK1D 0 | DDR1 = 0 | DYRK1B 0 | DYRK2 = 0

c1cc(OCCN2CCCCC2)cc(-c2n[nH]c3ccc(-c4nnc[nH]4)cc23)c1 [CC-401 (hydrochloride)] (10 µM)
inactive: CDK7 = 0 | CDK9 = 0 | CHEK2 = 0 | CSF1R 0 | CSK 0 | CSNK1A1 = 0 | CSNK1D 0 | DDR1 = 0 | DYRK1B 0 | DYRK2 = 0

COc1cc(N2CCC(N)CC2)ccc1Nc1ncc(Cl)c(-c2c[nH]c3ccccc23)n1 (2.5 µM)
inactive: CDK7 = 0 | CDK9 = 0 | CHEK2 = 0 | CSF1R 0 | CSK 0 | CSNK1A1 = 0 | CSNK1D 0 | DDR1 = 0 | DYRK1B 0 | DYRK2 = 0
